Measurements: PubChem BioAssay (Tox21)
Several values for one entry are separate records, joined by “and”; a condition that tells them apart may be missing. Equal entries are not always repeated. The inconclusive results got no clear call from the source; some entries with a clear call stand among them for comparison. For some of these results: Potencies of inconclusive entries are doubtful fits and often do not repeat. Where a structure was tested more than once in an assay, its records may differ in their call. Activity calls are given as the source filed them. Unless noted, calls follow the shape of the full dose curve.

By UniProt entry, the sequences of proteins in these tests, tags left out. Where a name states a change or a piece, a line headed by the entry shows the natural chain unless it says otherwise.
UniProt P14416, whole entry, looked up: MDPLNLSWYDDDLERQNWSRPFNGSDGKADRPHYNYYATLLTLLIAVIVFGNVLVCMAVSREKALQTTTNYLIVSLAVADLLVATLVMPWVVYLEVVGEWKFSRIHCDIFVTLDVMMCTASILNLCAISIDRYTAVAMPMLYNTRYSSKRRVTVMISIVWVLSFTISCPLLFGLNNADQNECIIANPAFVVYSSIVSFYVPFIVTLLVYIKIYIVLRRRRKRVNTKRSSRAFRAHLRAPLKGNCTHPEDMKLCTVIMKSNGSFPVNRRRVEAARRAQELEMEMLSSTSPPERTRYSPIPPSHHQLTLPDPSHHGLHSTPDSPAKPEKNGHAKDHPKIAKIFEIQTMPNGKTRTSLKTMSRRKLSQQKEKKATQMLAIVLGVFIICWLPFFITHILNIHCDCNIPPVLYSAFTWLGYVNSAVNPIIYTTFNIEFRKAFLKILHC
UniProt P28223, whole entry, looked up: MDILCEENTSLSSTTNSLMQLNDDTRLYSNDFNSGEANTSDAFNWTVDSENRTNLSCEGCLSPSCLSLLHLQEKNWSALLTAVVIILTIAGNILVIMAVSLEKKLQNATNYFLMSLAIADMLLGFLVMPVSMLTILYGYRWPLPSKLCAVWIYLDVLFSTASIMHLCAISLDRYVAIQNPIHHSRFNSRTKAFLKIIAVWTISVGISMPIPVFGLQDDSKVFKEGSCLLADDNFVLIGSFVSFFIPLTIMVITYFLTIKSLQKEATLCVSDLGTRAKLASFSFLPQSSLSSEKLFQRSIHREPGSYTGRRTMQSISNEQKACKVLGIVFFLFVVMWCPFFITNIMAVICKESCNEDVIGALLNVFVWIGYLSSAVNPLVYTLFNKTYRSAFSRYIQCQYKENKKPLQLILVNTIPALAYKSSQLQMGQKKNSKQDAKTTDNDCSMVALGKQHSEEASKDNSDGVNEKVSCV
UniProt P11229: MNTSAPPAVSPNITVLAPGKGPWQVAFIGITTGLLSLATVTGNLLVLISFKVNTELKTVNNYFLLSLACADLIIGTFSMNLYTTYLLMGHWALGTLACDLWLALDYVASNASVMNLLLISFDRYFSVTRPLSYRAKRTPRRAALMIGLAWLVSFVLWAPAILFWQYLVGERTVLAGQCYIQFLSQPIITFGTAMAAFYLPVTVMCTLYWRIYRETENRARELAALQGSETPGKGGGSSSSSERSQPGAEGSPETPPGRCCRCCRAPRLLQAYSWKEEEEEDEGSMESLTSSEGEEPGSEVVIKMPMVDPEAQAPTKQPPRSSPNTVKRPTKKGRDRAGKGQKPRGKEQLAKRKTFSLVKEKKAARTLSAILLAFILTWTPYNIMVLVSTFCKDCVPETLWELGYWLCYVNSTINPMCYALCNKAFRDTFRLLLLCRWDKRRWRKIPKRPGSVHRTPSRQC

How the values were obtained:
[1] = Nuclear factor erythroid 2-related factor 2/antioxidant responsive element (Nrf2/ARE) small molecule agonists: luciferase reporter gene qHTS assay in human keratinocytes (AID 1919969); also: nearly all actives have a fitted effect of over 35% in size
[2] = p53 small molecule agonists, cell-based qHTS assay with rat liver microsomes: qHTS cell viability counter screen (AID 1963580); also: nearly all actives have a fitted effect of over 45% in size
Method in brief: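 Viability is assessed in parallel with the p53 reporter read: HCT-116 p53RE-bla cells receive compounds plus rat microsomes and NADPH (0.5 mg/mL final apiece), incubate 16 h at 37 C, and then CellTiter-Glo luminescence is recorded.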

[3] = p53 small molecule agonists, cell-based qHTS assay: qHTS cell viability counter screen (AID 1963581); also: nearly all actives have a fitted effect of over 45% in size
Method in brief: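 HCT-116 p53RE-bla cells, 4,000/well, plated 5 h before compound pin transfer; 16 h at 37 C; bla substrate 2 h RT; then CellTiter-Glo, 30 min RT, luminescence.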

[4] = cAMP Responsive Elements (CRE) small molecule antagonists, cell-based qHTS assay (AID 1963591; active = well fitted inhibition curve with a large enough effect in the signal ratio in the repeat runs, not every such curve was filed as active; inconclusive = weak or mixed curves, or effect the other way; the % refers to the signal ratio; as to activity change, negative = inhibition: % is scaled to controls: 0 for no effect and ±100 for the full control effect); settings: CRE-bla HEK293T, beta-lactamase FRET ratio; activity change, negative = inhibition: at 92.4 µM (top of the series) unless noted
Method in brief: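 Beta-lactamase reporter read by FRET substrate (LiveBLAzer B/G) after 2 h at room temperature. CRE-bla HEK293T cells had received compound plus 0.25 uM (final) NKH477 for 3 h at 37 °C.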

[5] = target: Beta-2 adrenergic receptor (Homo sapiens) (UniProt P07550); test: Adrenergic beta2 receptor (ADRB2) small molecule antagonists, cell-based qHTS assay (AID 1963592); settings: CHO-ADRB2 cells, isoproterenol-stimulated cAMP HTRF ratio, 0.5 h; activity change, negative = inhibition: at 92.4 µM (top of the series) unless noted; also: nearly all actives have a fitted effect of over 50% in size
Method in brief: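 Cells (CHO, stable ADRB2 overexpression) incubated 18-20hr at 37C; compounds added from DMSO; agonist mix (1nM isoproterenol, 100uM IBMX, 25uM Ro-20-1724) added; 0.5hr RT; d2-cAMP and anti-cAMP-cryptate added; 1hr RT; 665/615 nm read.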

[6] = target: Beta-2 adrenergic receptor (Homo sapiens) (UniProt P07550); test: Adrenergic beta2 receptor (ADRB2) small molecule agonists, cell-based qHTS assay (AID 1963593); settings: CHO-ADRB2 cells, cAMP HTRF, 30 min;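 as to activation: CHO cells stably overexpressing human ADRB2; % is scaled to controls: 0 for no effect and ±100 for the full control effect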
Method in brief: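 CHO cells stably over-expressing ADRB2 were plated overnight at 37C, then dosed with compounds plus a stimulation mix containing 100uM IBMX and 25uM Ro-20-1724 for 0.5hr at room temperature. cAMP was measured by HTRF competition, 1hr.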

[7] = target: D(2) dopamine receptor (Homo sapiens) (UniProt P14416); test: Dopamine D2 receptor (DRD2) small molecule agonists, cell-based qHTS assay (AID 1963594); settings: HEK293-DRD2 cAMP HTRF, agonist mode, 30 min; activation: at 92.4 µM (top of the series) unless noted; also: nearly all actives have a fitted effect of over 35% in size
Method in brief: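 HEK293 cells stably expressing human DRD2, pre-treated with PDE inhibitor Ro20-1724 (0.1 mM final) and compound 10 min at room temperature, then stimulated with NKH477 (200nM […]) for 30 min. cAMP read by HTRF (665/620 nm).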

[8] = p53 small molecule agonists, cell-based qHTS assay with human liver microsomes: qHTS cell viability counter screen (AID 1963579); also: nearly all actives have a fitted effect of over 45% in size
Method in brief: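 HLM-supplemented (0.5 mg/mL final) and NADPH-supplemented (0.5 mg/mL final) p53RE-bla cultures, 4,000 cells per well, were dosed with compounds in DMSO for 16 h at 37 C; luminescent ATP detection (CellTiter-Glo, 30 min, room temperature) quantified surviving cells.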

[9] = cAMP Responsive Elements (CRE) small molecule agonists, cell-based qHTS assay (AID 1963590); settings: CRE-bla HEK293T, beta-lactamase FRET ratio, 3 h; activation: at 92.4 µM (top of the series) unless noted; as to activation: % is scaled to controls: 0 for no effect and ±100 for the full control effect
Method in brief: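 HEK 293T CRE-bla, 2,000 cells/well, 18 h preincubation 37 C/5% CO2; cpds (DMSO) pinned, 3 h; LiveBLAzer B/G FRET substrate, 2 h RT.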

[10] = target: D(2) dopamine receptor (Homo sapiens) (UniProt P14416); test: Dopamine D2 receptor (DRD2) small molecule antagonists, cell-based qHTS assay (AID 1963595; active = well fitted inhibition curve with a large enough effect in the signal ratio in the repeat runs, with a control signal flat; inconclusive = weak or mixed curves, or effect the other way; the % refers to the signal ratio; as to activity change, negative = inhibition: % is scaled to controls: 0 for no effect and ±100 for the full control effect); settings: HEK293-DRD2 cAMP HTRF antagonist mode; activity change, negative = inhibition: at 92.4 µM (top of the series) unless noted
Method in brief: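 Antagonist mode in DRD2-HEK293 cells: after compound addition with 0.1 mM Ro20-1724, cells received quinpirole (12 nM) and NKH477 (200 nM) for 30 min at room temperature; HTRF cAMP read after 1 h detection.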

[11] = target: 5-hydroxytryptamine receptor 2A (Homo sapiens) (UniProt P28223); test: 5-hydroxytryptamine receptor 2A (HTR2A) small molecule antagonists, cell-based qHTS assay (AID 1963586); also: nearly all actives have a fitted effect of over 45% in size
Method in brief: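 Antagonist-mode intracellular calcium assay: DOI (4 nM) added after 5 min compound pre-incubation at room temperature to dye-loaded HTR2A-CHO cells. Fluorescence followed for 3 min, sampled every second.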

[12] = p53 small molecule agonists, cell-based qHTS assay (AID 1963582; active = well fitted activation curve with a large enough effect in the signal ratio in the repeat runs, not every such curve was filed as active; inconclusive = weak or mixed curves; the % refers to the signal ratio); settings: HCT-116 p53RE-bla reporter, beta-lactamase FRET ratio, 16 h; activation: at 66 µM (top of the series) unless noted
Method in brief: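 Reporter line: p53RE-bla. Pre-incubation 5 h, 37 C, 5% CO2; compound (DMSO, pin tool) 16 h, 37 C; B/G FRET substrate 2 h RT; fluorescence intensity read.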

[13] = target: Muscarinic acetylcholine receptor M1 (Homo sapiens) (UniProt P11229); test: Cholinergic receptor muscarinic 1 (CHRM1) small molecule antagonists, cell-based qHTS assay (AID 1963588); also: nearly all actives have a fitted effect of over 40% in size
Method in brief: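 CHRM1-CHO calcium-flux assay, antagonist mode. Cells were seeded 18 h, dye-loaded 1 h at 37 C and given compound for 5 min at RT, then acetylcholine was added at 50nM. FDSS fluorescence was read 3 min; 15 concentrations, three runs.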

[14] = activation: at 92.4 µM (top of the series) unless noted
Potency is read from the fitted curve at half-maximal effect.

## Nc1ccc(N)cc1
[1]
  Potency: inconclusive: 68.9 µM [activator]
[2]
  Potency: inconclusive: 51.6 µM [cytotoxic, single point]
[3]
  Potency: inconclusive: 0.646 µM [cytotoxic, single point]
[4]
  activity change, negative = inhibition: inconclusive: 12%
[5]
  Potency: inconclusive: 27.4 µM [falling, partial curve, poor fit]
[6]; [14]
  Potency: inconclusive: 2.74 µM [inhibitor, single point] and inactive
[7]
  Potency: inconclusive: 68.9 µM [falling, partial curve, poor fit] and inconclusive: 61.1 µM [falling, partial curve, poor fit]

## CN1CSC(=S)N(C)C1
[1]
  Potency: active: 1.21 µM and active: 2.43 µM
[2]
  Potency: active: 20.3 µM and inconclusive: 9.11 µM [cytotoxic, partial curve, poor fit]
[4]
  Potency: inconclusive: 27.2 µM [inhibitor] and inconclusive: 21.6 µM [inhibitor, partial curve, poor fit]
[6]; [14]
  Potency: inconclusive: 6.84 µM [inhibitor, full curve, poor fit]
  activation: inconclusive: 0.303%

## BrCC(Br)(Br)Br
[1]
  Potency: inconclusive: 71.1 µM [activator, single point]
[8]
  Potency: inactive
[9]
  Potency: inactive
[6]; [14]
  Potency: inconclusive: 2.83 µM [inhibitor, single point]

## C[C@]12CC[C@H]3[C@@H](CCC4=CC(=O)CC[C@@H]43)[C@@H]1CC[C@@H]2O
[1]
  Potency: inactive
[8]
  Potency: inactive
[4]
  activity change, negative = inhibition: inconclusive: 29.5%
[6]; [14]
  activation: inconclusive: 5.48% [at 42.5 µM]
[6]; at 92.4 µM (top of the series)
  activation: inactive: 20.3%
[10]
  Potency: inactive

## CC1C=[C-]C=C1.[C-]#[O+].[C-]#[O+].[C-]#[O+].[Mn]
[1]
  Potency: inconclusive: 34.1 µM [activator, partial curve, poor fit]
[2]
  Potency: inconclusive: 11.4 µM [rising, single point]
[3]
  Potency: inconclusive: 0.571 µM [cytotoxic, single point]
[6]; [14]
  Potency: inconclusive: 0.304 µM [inhibitor, full curve, poor fit]

## ClC1=C(Cl)C2(Cl)C3C(Cl)C(Cl)CC3C1(Cl)C2(Cl)Cl (configuration not stated)
[1]
  Potency: active: 4.84 µM and active: 12.2 µM
[8]
  Potency: inconclusive: 18.2 µM [cytotoxic, single point]
[4]
  Potency: inconclusive: 76.7 µM [inhibitor] and inconclusive: 61.1 µM [fluorescent, partial curve, poor fit]
[5]
  Potency: inconclusive: 24.3 µM [activator]
  activity change, negative = inhibition: inconclusive: 30%
[6]; [14]
  Potency: inconclusive: 30.5 µM [activator] and active: 54.5 µM
[7]
  activation: inconclusive: -29%
[10]
  Potency: inconclusive: 60.9 µM [inhibitor, single point] and inconclusive: 68.6 µM [inhibitor, single point]

## Oc1ccccc1-c1ccccc1
[1]
  Potency: inconclusive: 77 µM [activator, partial curve, poor fit] and inconclusive: 68.6 µM [activator, single point]
[8]
  Potency: inconclusive: 46.9 µM [cytotoxic, single point]
[11]
  Potency: inconclusive: 29.8 µM [inhibitor, partial curve, poor fit] and inconclusive: 20.5 µM [inhibitor, single point]
[4]
  Potency: inactive
[5]
  Potency: inconclusive: 70.2 µM [inhibitor]
  activity change, negative = inhibition: inconclusive: -20.7%
[6]; [14]
  Potency: inconclusive: 2.73 µM [inhibitor, partial curve, poor fit]
  activation: inconclusive: -11.2% [at 42.5 µM]
[6]; at 92.4 µM (top of the series)
  activation: inactive: -44.8% and inactive: -1.8%

## Cn1sc(Cl)cc1=O
[1]
  Potency: inconclusive: 68.6 µM [activator, single point]
[2]
  Potency: inactive
[6]; [14]
  Potency: inactive
[7]
  Potency: inconclusive: 273 nM [rising, partial curve, poor fit]

## COC(=O)c1cc(Oc2ccc(Cl)cc2Cl)ccc1[N+](=O)[O-]
[1]
  Potency: inconclusive: 61.1 µM [activator, partial curve, poor fit]
[2]
  Potency: inactive
[12]
  Potency: inconclusive: 20.4 µM [rising, full curve]
[13]
  Potency: active: 0.0375 µM
[6]; [14]
  Potency: inactive

## Cc1cc(O)ccc1Cl
[1]
  Potency: inconclusive: 24.8 µM [activator, single point]
[8]
  Potency: inactive
[13]
  Potency: inactive
[9]
  Potency: inactive
[6]; at 42.5 µM (top of the series)
  activation: inconclusive: 31.7%
[6]; at 92.4 µM (top of the series)
  activation: inconclusive: 2.1%

## CC(C)(O)C(=O)Nc1ccc([N+](=O)[O-])c(C(F)(F)F)c1
[1]
  Potency: inconclusive: 1.12 µM [activator, single point]
[8]
  Potency: inconclusive: 37.1 µM [cytotoxic, partial curve, poor fit]
[9]
  Potency: inconclusive: 24.8 µM [rising, partial curve] and inconclusive: 35.5 µM [rising, partial curve]
[6]; at 42.5 µM (top of the series)
  activation: inconclusive: -15.7%
[6]; at 92.4 µM (top of the series)
  activation: inconclusive: -67.6%

## CCNC(=O)NC(=O)/C(C#N)=N/OC
[1]
  Potency: inconclusive: 61.2 µM [activator, single point]
[8]
  Potency: inconclusive: 1.82 µM [cytotoxic, single point]
[9]
  Potency: inconclusive: 61.2 µM [rising, partial curve]
[6]; [14]
  Potency: inconclusive: 6.87 µM [inhibitor, single point]
